{
  "sequences": {"note": "Amino acid sequences for entries named in this document (tags omitted).", "UniProt P20815, whole entry": "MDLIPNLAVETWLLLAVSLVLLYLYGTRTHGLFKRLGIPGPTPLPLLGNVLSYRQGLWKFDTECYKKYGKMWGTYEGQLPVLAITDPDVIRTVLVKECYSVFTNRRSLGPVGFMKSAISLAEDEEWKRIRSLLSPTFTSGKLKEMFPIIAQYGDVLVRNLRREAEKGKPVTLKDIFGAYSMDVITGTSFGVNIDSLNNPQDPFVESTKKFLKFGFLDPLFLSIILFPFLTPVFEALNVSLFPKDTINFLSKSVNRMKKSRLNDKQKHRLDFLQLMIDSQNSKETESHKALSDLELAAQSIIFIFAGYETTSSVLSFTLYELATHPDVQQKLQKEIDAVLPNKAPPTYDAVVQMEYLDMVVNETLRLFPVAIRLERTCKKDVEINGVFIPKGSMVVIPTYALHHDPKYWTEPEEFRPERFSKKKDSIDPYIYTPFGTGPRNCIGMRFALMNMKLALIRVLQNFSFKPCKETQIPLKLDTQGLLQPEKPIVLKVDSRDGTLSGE"},
  "source": "paper PMC8260145",
  "about": "(Archives of biochemistry and biophysics, 2021)",
  "key": {"recombinant human CYP3A5": {"molecular_target": "recombinant human CYP3A5 (Homo sapiens, UniProt P20815)", "assay": "Inhibition of C152 metabolism in SS", "conditions": "SS(3A5); 30 μM C152"}, "human liver microsomes": {"system": "human liver microsomes", "assay": "Inhibition of C152 metabolism in human liver microsomes", "assay_type": "biochemical", "conditions": "30 μM C152"}, "[1]": {"system": "cytochromes P450 of HLM that metabolise C152", "assay": "Inhibition of C152 metabolism in human liver microsomes", "assay_type": "biochemical", "conditions": "human, IC50 (Clotrimazole), 30 μM C152"}},
  "data": [
    {"compound": "Clc1ccccc1C(c1ccccc1)(c1ccccc1)n1ccnc1", "note": "[Clotrimazole]", "values": [
      {"measurement": "Maximal inhibition (Clotrimazole)", "setting": "recombinant human CYP3A5", "value": "96 ± 4", "unit": "%"},
      {"measurement": "Maximal inhibition (Clotrimazole)", "setting": "human liver microsomes; HLM(FVT)", "value": "70 ± 24", "unit": "%"},
      {"measurement": "Maximal inhibition (Clotrimazole)", "setting": "human liver microsomes; HLM(IHG)", "value": "80 ± 19", "unit": "%"},
      {"measurement": "Maximal inhibition (Clotrimazole)", "setting": "human liver microsomes; HLM(LBA)+CYP2E1", "value": "85 ± 17", "unit": "%"},
      {"measurement": "Maximal inhibition (Clotrimazole)", "setting": "human liver microsomes; HLM(LBA)", "value": "71 ± 2", "unit": "%"},
      {"measurement": "Maximal inhibition (Clotrimazole)", "setting": "human liver microsomes; HLM(LFJ)+CYP2E1", "value": "96 ± 9", "unit": "%"},
      {"measurement": "Maximal inhibition (Clotrimazole)", "setting": "human liver microsomes; HLM(LFJ)", "value": "94 ± 6", "unit": "%"},
      {"measurement": "Maximal inhibition (Clotrimazole)", "setting": "human liver microsomes; HLM(NQO)", "value": "94 ± 13", "unit": "%"},
      {"measurement": "Maximal inhibition (Clotrimazole)", "setting": "human liver microsomes; HLM(ODN)", "value": "79 ± 25", "unit": "%"},
      {"measurement": "IC50", "setting": "[1]; human liver microsomes HLM(FVT), probe C152 (30 μM), HLM(FVT)", "value": "49 ± 40", "unit": "nM"},
      {"measurement": "IC50", "setting": "[1]; human liver microsomes HLM(IHG), probe C152 (30 μM), HLM(IHG)", "value": "47 ± 6", "unit": "nM"},
      {"measurement": "IC50", "setting": "[1]; human liver microsomes HLM(LBA) enriched with CYP2E1, probe C152 (30 μM), HLM(LBA)+CYP2E1", "value": "79 ± 16", "unit": "nM"},
      {"measurement": "IC50", "setting": "[1]; human liver microsomes HLM(LBA), probe C152 (30 μM), HLM(LBA)", "value": "239 ± 52", "unit": "nM"},
      {"measurement": "IC50", "setting": "[1]; human liver microsomes HLM(LFJ) enriched with CYP2E1, probe C152 (30 μM), HLM(LFJ)+CYP2E1", "value": "55 ± 17", "unit": "nM"},
      {"measurement": "IC50", "setting": "[1]; human liver microsomes HLM(LFJ), probe C152 (30 μM), HLM(LFJ)", "value": "286 ± 89", "unit": "nM"},
      {"measurement": "IC50", "setting": "[1]; human liver microsomes HLM(NQO), probe C152 (30 μM), HLM(NQO)", "value": "397 ± 76", "unit": "nM"},
      {"measurement": "IC50", "setting": "[1]; human liver microsomes HLM(ODN), probe C152 (30 μM), HLM(ODN)", "value": "72 ± 11", "unit": "nM"}
    ]}
  ]
}
